# Laboratory results taken from the supplement of paper PMC11732987, “Enantioselective OTUD7B fragment discovery through chemoproteomics screening and high-throughput optimisation” (Communications Chemistry, 2025).
# Amino acid sequences for entries named in this document (tags omitted). A change or cut given only in a name is not applied to a line headed by its entry. Residues count along the entry.
# UniProt Q9H7N4, 981-1000: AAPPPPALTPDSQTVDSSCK
# UniProt Q5HYK7: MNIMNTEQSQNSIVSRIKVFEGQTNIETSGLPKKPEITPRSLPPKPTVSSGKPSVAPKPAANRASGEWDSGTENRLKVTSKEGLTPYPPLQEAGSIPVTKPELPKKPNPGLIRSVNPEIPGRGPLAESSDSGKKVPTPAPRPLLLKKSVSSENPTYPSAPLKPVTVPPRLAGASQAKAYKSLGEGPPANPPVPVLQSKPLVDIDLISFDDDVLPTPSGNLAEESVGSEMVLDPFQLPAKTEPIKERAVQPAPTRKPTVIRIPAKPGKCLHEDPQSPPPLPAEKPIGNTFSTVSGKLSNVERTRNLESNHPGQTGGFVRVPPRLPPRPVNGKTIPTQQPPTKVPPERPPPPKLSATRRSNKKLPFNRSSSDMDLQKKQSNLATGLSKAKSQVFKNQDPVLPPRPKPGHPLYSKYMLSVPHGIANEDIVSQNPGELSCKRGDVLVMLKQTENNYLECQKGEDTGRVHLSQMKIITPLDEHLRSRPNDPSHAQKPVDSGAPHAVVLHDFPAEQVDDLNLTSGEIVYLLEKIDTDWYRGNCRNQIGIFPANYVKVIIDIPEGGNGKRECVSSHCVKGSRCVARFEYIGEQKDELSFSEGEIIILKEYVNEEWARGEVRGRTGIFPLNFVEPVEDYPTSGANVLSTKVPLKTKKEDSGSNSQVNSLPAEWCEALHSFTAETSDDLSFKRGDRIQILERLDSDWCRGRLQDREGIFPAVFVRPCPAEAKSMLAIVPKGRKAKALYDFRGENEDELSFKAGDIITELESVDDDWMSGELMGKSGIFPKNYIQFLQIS
# UniProt P55735: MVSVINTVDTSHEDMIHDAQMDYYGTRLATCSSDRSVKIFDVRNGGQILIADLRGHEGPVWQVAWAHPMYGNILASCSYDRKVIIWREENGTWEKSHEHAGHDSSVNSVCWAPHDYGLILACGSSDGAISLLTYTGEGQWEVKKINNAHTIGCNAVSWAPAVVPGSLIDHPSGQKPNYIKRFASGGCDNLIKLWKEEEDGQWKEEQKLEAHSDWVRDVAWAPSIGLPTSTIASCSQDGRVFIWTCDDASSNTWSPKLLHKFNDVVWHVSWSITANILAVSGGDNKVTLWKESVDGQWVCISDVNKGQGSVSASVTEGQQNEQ
# UniProt Q15436: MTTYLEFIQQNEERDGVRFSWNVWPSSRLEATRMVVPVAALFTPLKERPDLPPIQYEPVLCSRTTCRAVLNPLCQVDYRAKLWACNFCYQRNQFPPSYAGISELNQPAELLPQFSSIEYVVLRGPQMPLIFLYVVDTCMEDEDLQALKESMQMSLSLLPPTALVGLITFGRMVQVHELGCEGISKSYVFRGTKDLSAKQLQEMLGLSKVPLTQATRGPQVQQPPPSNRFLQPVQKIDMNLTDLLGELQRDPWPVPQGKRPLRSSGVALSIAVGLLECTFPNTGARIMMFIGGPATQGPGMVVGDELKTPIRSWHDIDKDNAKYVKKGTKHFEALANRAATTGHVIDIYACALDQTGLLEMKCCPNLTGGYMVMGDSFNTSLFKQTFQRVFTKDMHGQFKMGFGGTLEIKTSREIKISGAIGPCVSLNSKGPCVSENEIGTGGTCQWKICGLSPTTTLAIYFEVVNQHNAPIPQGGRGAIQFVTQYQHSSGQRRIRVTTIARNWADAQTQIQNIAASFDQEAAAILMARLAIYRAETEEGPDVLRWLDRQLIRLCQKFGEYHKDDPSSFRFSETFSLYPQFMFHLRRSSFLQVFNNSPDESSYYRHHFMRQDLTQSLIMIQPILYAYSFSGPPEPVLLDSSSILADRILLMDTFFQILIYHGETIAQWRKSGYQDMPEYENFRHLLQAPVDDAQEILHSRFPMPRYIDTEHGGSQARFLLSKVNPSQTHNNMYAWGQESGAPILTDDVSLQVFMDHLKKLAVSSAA
# UniProt Q13530: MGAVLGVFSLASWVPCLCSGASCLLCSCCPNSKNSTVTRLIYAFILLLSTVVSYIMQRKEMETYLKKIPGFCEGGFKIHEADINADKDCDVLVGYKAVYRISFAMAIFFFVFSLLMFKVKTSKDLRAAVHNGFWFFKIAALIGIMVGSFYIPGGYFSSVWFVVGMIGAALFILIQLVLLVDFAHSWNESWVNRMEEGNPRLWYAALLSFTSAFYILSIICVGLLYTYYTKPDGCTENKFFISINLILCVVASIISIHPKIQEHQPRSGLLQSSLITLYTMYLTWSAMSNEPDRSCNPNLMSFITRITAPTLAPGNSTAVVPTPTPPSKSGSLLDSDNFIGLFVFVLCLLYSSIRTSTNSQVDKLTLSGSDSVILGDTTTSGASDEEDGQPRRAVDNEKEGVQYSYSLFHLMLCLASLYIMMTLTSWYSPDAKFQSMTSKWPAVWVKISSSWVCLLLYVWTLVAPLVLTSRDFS
# UniProt Q86VW0: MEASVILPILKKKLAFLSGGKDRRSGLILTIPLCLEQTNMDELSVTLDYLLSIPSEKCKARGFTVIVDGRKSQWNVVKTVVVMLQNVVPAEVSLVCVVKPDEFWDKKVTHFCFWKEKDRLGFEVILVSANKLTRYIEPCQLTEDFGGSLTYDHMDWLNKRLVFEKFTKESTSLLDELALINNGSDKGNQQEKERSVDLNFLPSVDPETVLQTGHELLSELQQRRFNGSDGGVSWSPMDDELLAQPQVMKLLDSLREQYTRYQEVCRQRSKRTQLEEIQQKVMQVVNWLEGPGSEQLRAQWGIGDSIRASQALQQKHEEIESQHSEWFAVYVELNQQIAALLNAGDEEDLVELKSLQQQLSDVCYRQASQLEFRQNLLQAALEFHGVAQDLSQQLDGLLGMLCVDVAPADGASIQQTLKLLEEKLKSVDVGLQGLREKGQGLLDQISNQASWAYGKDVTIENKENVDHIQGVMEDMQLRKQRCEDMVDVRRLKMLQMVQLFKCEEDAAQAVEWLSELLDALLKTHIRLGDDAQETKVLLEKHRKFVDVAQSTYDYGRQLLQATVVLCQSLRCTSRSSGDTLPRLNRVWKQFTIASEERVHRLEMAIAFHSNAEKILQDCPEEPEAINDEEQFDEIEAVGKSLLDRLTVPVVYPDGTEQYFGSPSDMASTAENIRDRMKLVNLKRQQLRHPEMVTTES
# UniProt Q9BYW2: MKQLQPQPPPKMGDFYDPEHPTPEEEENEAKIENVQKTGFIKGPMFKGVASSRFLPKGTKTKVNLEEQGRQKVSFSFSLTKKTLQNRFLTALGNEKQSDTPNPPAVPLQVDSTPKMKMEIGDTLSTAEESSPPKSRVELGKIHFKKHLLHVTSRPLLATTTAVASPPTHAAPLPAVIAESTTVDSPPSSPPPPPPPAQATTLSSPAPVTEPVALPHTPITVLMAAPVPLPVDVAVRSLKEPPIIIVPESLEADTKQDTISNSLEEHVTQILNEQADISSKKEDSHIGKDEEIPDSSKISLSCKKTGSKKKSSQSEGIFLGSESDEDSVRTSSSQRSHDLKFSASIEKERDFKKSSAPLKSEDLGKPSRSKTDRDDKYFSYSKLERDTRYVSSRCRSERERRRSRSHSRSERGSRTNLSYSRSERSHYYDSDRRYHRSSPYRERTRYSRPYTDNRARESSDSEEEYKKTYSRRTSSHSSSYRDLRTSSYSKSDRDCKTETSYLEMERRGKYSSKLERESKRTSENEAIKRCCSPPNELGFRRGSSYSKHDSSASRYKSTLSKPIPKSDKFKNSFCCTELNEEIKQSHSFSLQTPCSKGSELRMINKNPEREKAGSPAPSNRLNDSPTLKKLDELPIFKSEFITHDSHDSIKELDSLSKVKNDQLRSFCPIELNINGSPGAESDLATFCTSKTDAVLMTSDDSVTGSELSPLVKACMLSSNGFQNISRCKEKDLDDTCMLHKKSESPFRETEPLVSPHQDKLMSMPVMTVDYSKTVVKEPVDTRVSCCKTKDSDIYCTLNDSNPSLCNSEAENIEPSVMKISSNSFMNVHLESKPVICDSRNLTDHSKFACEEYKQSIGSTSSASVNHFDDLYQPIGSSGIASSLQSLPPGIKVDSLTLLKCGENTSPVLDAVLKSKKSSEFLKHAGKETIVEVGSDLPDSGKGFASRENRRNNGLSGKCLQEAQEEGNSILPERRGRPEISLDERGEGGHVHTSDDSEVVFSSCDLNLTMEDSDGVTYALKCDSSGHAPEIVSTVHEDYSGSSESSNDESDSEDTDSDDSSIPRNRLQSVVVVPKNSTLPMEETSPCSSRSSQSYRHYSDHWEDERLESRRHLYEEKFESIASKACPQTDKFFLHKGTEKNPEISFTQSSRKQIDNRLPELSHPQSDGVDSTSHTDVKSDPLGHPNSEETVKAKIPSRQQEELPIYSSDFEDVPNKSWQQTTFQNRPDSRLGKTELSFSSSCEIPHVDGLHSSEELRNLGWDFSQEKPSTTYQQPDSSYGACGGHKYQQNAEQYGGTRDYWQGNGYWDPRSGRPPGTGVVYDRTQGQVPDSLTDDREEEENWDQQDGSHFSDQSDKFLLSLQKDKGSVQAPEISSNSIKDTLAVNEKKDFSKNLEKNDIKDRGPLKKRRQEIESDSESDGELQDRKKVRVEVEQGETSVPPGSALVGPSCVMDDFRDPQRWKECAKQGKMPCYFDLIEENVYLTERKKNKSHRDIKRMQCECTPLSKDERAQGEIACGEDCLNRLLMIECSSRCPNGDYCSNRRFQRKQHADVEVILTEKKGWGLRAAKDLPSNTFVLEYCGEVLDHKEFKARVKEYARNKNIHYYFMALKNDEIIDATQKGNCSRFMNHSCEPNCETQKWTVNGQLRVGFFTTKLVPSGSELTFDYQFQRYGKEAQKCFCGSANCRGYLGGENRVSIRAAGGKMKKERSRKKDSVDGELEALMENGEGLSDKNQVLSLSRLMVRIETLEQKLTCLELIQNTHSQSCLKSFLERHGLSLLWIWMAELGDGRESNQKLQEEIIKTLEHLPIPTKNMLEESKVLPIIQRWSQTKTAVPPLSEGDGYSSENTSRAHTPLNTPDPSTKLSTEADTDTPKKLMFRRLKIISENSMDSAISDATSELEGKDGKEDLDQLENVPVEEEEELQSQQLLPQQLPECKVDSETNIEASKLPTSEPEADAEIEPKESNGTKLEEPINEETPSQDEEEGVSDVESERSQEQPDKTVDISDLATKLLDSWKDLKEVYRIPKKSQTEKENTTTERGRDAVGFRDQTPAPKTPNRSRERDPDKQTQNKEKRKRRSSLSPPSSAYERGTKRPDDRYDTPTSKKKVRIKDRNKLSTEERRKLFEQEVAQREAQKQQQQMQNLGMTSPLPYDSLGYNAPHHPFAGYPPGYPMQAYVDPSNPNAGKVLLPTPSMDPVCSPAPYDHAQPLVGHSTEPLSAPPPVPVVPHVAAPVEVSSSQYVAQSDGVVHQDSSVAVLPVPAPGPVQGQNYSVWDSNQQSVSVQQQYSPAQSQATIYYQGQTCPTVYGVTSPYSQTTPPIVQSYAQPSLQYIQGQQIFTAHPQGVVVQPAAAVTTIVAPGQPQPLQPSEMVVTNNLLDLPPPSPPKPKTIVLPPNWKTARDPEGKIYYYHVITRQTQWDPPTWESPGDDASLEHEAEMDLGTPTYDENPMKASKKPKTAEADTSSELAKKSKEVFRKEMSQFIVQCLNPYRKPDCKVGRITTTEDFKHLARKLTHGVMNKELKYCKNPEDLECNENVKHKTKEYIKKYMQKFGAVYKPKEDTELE
# UniProt Q99442: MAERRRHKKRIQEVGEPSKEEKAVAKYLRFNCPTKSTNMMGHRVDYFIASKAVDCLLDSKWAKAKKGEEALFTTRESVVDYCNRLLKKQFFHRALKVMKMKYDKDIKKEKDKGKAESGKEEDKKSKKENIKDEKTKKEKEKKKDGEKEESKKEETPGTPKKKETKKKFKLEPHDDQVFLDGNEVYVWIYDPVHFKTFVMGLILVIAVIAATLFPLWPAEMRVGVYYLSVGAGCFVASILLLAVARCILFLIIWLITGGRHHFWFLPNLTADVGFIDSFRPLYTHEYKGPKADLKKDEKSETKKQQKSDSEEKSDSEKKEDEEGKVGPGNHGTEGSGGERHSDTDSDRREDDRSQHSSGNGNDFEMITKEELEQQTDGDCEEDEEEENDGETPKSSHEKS
# UniProt Q15464: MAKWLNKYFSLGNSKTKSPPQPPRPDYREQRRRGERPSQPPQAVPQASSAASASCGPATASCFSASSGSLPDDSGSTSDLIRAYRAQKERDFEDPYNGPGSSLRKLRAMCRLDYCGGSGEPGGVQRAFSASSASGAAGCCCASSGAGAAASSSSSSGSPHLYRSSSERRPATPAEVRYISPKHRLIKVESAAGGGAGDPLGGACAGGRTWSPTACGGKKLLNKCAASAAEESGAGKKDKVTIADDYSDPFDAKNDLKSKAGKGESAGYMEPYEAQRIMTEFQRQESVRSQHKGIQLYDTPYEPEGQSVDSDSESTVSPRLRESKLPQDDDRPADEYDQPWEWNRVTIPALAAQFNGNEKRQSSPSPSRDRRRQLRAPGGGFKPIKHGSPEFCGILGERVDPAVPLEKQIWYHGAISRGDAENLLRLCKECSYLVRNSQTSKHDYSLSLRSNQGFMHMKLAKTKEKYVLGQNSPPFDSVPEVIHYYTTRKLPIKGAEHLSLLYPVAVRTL
# UniProt Q96LD8, 64-84: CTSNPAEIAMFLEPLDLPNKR
# UniProt Q96T21, 274-293: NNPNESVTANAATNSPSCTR
# The list shows a part of the results. The data scatter; read single values as rough.
# Compound: ClCC(=O)N[C@H]1CCCc2ccccc12
# Assay: log2 mean competition ratio of IA-DTB cysteine labelling (DMSO/compound) (log2 ratio); higher = stronger cysteine engagement by compound
# Settings: 200 µM; treatment time: 4 h; cell line lysate: HEK293T
# Description: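 IA-DTB competitive cysteine chemoproteomics in HEK293T RIPA lysate. Lysates were treated with compound 29 or 30 at 50 or 200 µM for 4 h, then IA-DTB (500 µM, 1 h), trypsin-digested, NeutrAvidin-enriched and analysed by diaPASEF. Competition ratio = intensity DMSO / intensity compound (n=4 treated, n=64 DMSO); binding: mean log2 CR ≥ 1 and p ≤ 0.05 plus QC filters. Target is the cysteine site.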
row,Target,log2 mean competition ratio
1,SH2D5 C397,0.14
2,SCRN3 C102 (UniProt Q0VDG4),-0.0133
3,SFMBT1 C810,0.0185
4,SAPCD2 C195,-0.375
5,SF3A3 C145 (UniProt Q12874),-0.0694
6,SCAF1 C999 (UniProt Q9H7N4),0.202
7,SH3D19 C455 (UniProt Q5HYK7),0.386
8,SEC13 C299 (UniProt P55735),-0.256
9,SEC23A C180 (UniProt Q15436),-0.165
10,SERINC3 C72 (UniProt Q13530),-0.0174
11,SEC23IP C814 (UniProt Q9Y6Y8),-0.384
12,SEC13 C31 (UniProt P55735),0.00717
13,SAMM50 C65 (UniProt Q9Y512),-0.055
14,SEPTIN11 C300 (UniProt Q9NVA2),-0.113
15,SESTD1 C363 (UniProt Q86VW0),0.221
16,SETD2 C849 (UniProt Q9BYW2),-0.308
17,SEC31A C458,0.0384
18,SCRN1 C324 (UniProt Q12765),-0.0417
19,SEC23A C423 (UniProt Q15436),-0.117

# Shown as tab-separated lines: entries from further up
row	Target	log2 mean competition ratio
17	SEC31A C458	0.0384
18	SCRN1 C324 (UniProt Q12765)	-0.0417
19	SEC23A C423 (UniProt Q15436)	-0.117

# (further entries)

row,Target,log2 mean competition ratio
1,SEC24B C555 (UniProt O95487),0.0655
2,SETD5 C821,-0.237
3,SCAF1 C950 (UniProt Q9H7N4),0.151
4,SDHA C89 (UniProt P31040),0.272
5,SEC62 C55 (UniProt Q99442),-0.0315
6,SCRN3 C143 (UniProt Q0VDG4),0.949
7,SEC13 C245 (UniProt P55735),0.0381
8,SHB C215 (UniProt Q15464),0.287
9,SETD2 C1086 (UniProt Q9BYW2),-0.0285
10,SH3PXD2A C749 (UniProt Q5TCZ1),0.131
11,SH3BP5L C348 (UniProt Q7L8J4),0.134
12,SEC31A C704,0.0138
13,SENP8 C64 (UniProt Q96LD8),-0.0455
14,SIDT2 C335 (UniProt Q8NBJ9),-0.117
15,SETD2 C736 (UniProt Q9BYW2),0.419
16,SENP2 C202 (UniProt Q9HC62),0.0192
17,SHMT2 C343,-0.0273
18,SECISBP2 C291 (UniProt Q96T21),0.277
